{"source": "paper PMC7139656", "about": "“The Landscape of the Anti-Kinase Activity of the IDH1 Inhibitors” (Cancers, 2020)", "experiment_in_all_cases": "Cytotoxicity / antiproliferative activity, MTS test", "type_in_all_cases": "cell-based", "key": {"HCT 116 p53+/+": {"system": "HCT 116 p53+/+", "conditions": "Homo sapiens, 72-h incubation", "text": "(§1) The human colon carcinoma cell line HCT 116 wild type (p53^+/+) and the human breast carcinoma cell line MCF-7 were obtained from ATCC. The human colon cancer cell line HCT 116, which has a p53 deletion (p53^-/-), was kindly provided by prof. M. Rusin from the Maria Sklodowska-Curie Memorial Cancer Centre and Institute of Oncology in Gliwice, Poland. The glioblastoma cell line U-251 was kindly provided by prof. G. Kramer-Marek from The Institute of Cancer Research in London, United Kingdom. The pancreatic cell line PANC-1 and the human chronic myelogenous leukemia cell line K562 were purchased from Sigma-Aldrich. The adherent cell lines were cultured in Dulbecco’s modified Eagle’s medium (DMEM) containing 12% heat-inactivated fetal bovine serum (all from Sigma-Aldrich) with a mix of two standard antibiotics: 1% v/v of penicillin and streptomycin (Gibco) in 75 cm^2 flasks (Nunc). The suspension cell line K562 was cultured in an RPMI-1640 medium (Sigma-Aldrich), which had been supplemented with 10% heat-inactivated foetal bovine serum and the antibiotics. All of these cell lines were grown under standard conditions at 37 °C in a 5% CO2 humidified atmosphere. Prior to beginning the experiments, all of the cell lines were subjected to routine mycoplasma testing with specific Mycoplasma primers using the PCR technique.\n(§2) The exponentially growing cells for all of the cell lines were seeded in 96-well plates (Nunc) at a density of 5000 cells/well and incubated at 37 °C for 24 h. The assay was performed following a 72-h incubation with the various concentrations of the compounds that were being tested. Then, 20 µL of CellTiter 96®AQueous One Solution-MTS (Promega) solution was added to each well (with 100 µL DMEM without phenol red) and incubated for 1 h at 37 °C. The optical densities of the samples were analyzed at 490 nm using a multi-plate reader (Synergy 4, BioTek). The results are expressed as the percentage of the control and were calculated as the inhibitory concentration (IC50) values using GraphPad Prism 7. Each individual compound was tested in triplicate in a single experiment with each experiment being repeated five times."}, "HCT 116 p53-/-": {"system": "HCT 116 p53-/-", "conditions": "Homo sapiens, 72-h incubation", "text": "as §1, §2"}, "U-251": {"system": "U-251", "conditions": "Homo sapiens, 72-h incubation", "text": "as §1, §2"}, "K562": {"system": "K562", "conditions": "Homo sapiens, 72-h incubation", "text": "as §1, §2"}, "PANC-1": {"system": "PANC-1", "conditions": "Homo sapiens, 72-h incubation", "text": "as §1, §2"}, "MCF-7": {"system": "MCF-7", "conditions": "Homo sapiens, MCF7, 72-h incubation", "text": "as §1, §2"}}}
{"smiles": "Cc1ccc(NC(=O)c2ccc(CN3CCN(C)CC3)cc2)cc1Nc1nccc(-c2cccnc2)n1", "note": "[Imatinib, imatinib, reference compound]", "values": [{"measurement": "IC50", "setting": "HCT 116 p53+/+", "result": "> 30", "unit": "µM"}, {"measurement": "IC50", "setting": "HCT 116 p53-/-", "result": "> 30", "unit": "µM"}, {"measurement": "IC50", "setting": "U-251", "result": "> 30", "unit": "µM"}, {"measurement": "IC50", "setting": "K562", "result": "0.13 ± 0.03", "unit": "µM"}, {"measurement": "IC50", "setting": "PANC-1", "result": "> 30", "unit": "µM"}, {"measurement": "IC50", "setting": "MCF-7", "result": "> 30", "unit": "µM"}]}
